Laboratory results: PMC6925144, “A prospective compound screening contest identified broader inhibitors for Sirtuin 1” (Scientific Reports, 2019)
Whole data set: some 3,200 compounds, median “TSA(without NAD+) / Primary screening (TSA) / delta Tm (K)” near -0.07, cut for the highest 2% near 0.37. Some of the results follow.

The chains behind the UniProt entries cited, without tags or fusion partners. Residues count along the entry.
UniProt Q96EB6, 2-747 limits assumed: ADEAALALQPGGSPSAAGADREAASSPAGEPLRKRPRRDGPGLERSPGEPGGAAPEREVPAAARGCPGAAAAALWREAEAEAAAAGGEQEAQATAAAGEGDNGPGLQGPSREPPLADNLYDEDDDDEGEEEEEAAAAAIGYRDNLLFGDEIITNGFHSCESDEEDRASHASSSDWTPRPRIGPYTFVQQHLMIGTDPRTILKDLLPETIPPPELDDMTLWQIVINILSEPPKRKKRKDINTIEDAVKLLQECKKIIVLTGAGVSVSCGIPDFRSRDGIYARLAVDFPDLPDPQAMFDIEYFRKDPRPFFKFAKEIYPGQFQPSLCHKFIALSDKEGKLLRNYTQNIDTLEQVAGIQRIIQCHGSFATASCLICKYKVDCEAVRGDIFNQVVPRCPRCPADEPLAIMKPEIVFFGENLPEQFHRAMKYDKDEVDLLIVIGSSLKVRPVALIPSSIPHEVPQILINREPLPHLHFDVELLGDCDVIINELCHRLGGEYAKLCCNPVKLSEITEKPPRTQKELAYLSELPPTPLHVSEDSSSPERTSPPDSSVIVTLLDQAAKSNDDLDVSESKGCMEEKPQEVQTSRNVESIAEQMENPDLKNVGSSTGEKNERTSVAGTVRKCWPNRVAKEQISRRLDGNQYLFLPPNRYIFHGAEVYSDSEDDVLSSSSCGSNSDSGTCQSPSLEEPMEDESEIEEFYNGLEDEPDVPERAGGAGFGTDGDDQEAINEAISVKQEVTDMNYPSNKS

target: NAD-dependent deacetylase Sirtuin 1 (human, UniProt Q96EB6); test: primary screen, delta tm; design: single well (n = 1); details: 10 µM
In short: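 Thermal shift of Sirtuin 1 measured without NAD+, compound at 10 µM (n = 1); value is ΔTm, with hits defined as ΔTm > 0.45 K or < −1.5 K. Hits retested at 5, 10, 20 µM (n = 4) and counterscreened on bovine carbonic anhydrase and ABL1 SH2 domain.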

| Compound | TSA(without NAD+) / Primary screening (TSA) / delta Tm (K) |
| --- | --- |
| COc1ccc(C=C2C(=O)NC(=S)NC2=O)cc1 | 0.13 |
| NC(=O)c1ccc(S(=O)(=O)N2CCN(CC(O)c3ccccc3)CC2)cc1 (stereo not shown) | 0.17 |
| Cc1nc2ccc(Cl)cc2cc1C(=O)NCC(c1ccccc1)N1CCCC1 (stereo not shown) | -0.22 |
| CCCn1c(NC(=O)c2ccc3c(c2)CCC(=O)N3)nc2ccccc21 | 0.12 |
| NC(=O)c1ccc(NC(=O)C(Cc2ccccc2)NC(=O)c2ccccc2)cc1 (stereo not shown) | 0.07 |
| Cc1ccc(C)c(NC(=O)Cc2nc(COC(=O)c3ccc(O)cc3O)cs2)c1 | 0.22 |
| Cc1nc(-c2ccsc2)sc1C(=O)NCc1ccc(N2CCOCC2)c(F)c1 | 0.09 |
| Cc1nc(C)c(CNC(=O)N2CC(C)c3ccccc32)s1 (stereo not shown) | -0.08 |
| CN(C(=O)Cc1ccc(NC(=O)NCc2ccc(-n3cncn3)nc2)cc1)c1ccccc1 | 0.08 |
| COc1ccccc1-c1noc(C(C)NC(=O)C(C)NC(C)=O)n1 (stereo not shown) | -0.08 |
| Cc1cc(C(=O)CN2CCCC2c2cccn2C)c(C)n1-c1ccc(S(N)(=O)=O)cc1 (stereo not shown) | -0.05 |
| O=C(CC12CC3CC(CC(C3)C1)C2)NN/C=C1/C(=O)N(Cc2ccccc2)C(=O)c2ccccc21 | 0.32 |
| CCCNc1nnc(S)s1 | -0.43 |
| CCc1cc2c(N3CCN(CCCc4nc(-c5cccs5)no4)CC3)ncnc2s1 | -0.38 |
| CCN(CC)C(=O)Nc1ccc(C(C)NC(=O)c2cc3c(F)cccc3[nH]2)cc1 (stereo not shown) | 0.02 |
| O=C(CC12CC3CC(CC(O)(C3)C1)C2)NCc1cc(-c2ccccc2)on1 | -0.08 |
| O=c1[nH]c(CN2CCN(c3ncnc4sc5c(c34)CCCCC5)CC2)nc2sc3c(c12)CCCC3 | -0.17 |
| O=C(NC1CCS(=O)(=O)c2ccccc21)C1=Cc2ccccc2OC1 (stereo not shown) | -0.08 |
| CC(NCC1(N(C)C)CCOCC1)c1ccc(S(C)(=O)=O)cc1 (stereo not shown) | -0.15 |
| Cc1ccc2[nH]c(SCc3cc(=O)oc4ccc5ccccc5c34)nc2c1 | 0.28 |
| CC(O)c1nc2ccccc2n1Cc1cnn(C)c1C(F)(F)F (stereo not shown) | -0.15 |
| N#Cc1ccc(S(=O)(=O)N2CCN(c3ncnc4cc(Cl)ccc34)CC2)cc1 | 0.22 |
| COC(=O)c1c(C)[nH]c(C(=O)C(C)OC(=O)c2ccc(C(N)=O)cc2)c1C (stereo not shown) | -0.07 |
| O=C(c1cnc(-c2ccccc2)nc1)c1cc(Br)ccc1O | -0.15 |
| CCC(CC)N(c1ccc(C)c(C)c1)S(=O)(=O)c1cccc(C(N)=O)c1 | -0.05 |

| Compound | TSA(without NAD+) / Primary screening (TSA) / delta Tm (K) |
| --- | --- |
| O=C(O)Cn1nc(-c2ccccc2)ccc1=O | 0.02 |
| COC(C)[C@H](C)N (stereo partly shown) | -0.23 |
| O=C(Nc1cccc2ccccc12)N1CCC(c2ccc(O)cc2)CC1 | -0.08 |
| CCc1cc2c(N3CCCC3)nc(C)nc2s1 | -0.07 |
| CCOC(=O)c1c(C)[nH]c(C)c1C(=O)COC(=O)c1cccc(S(=O)(=O)N2CC3(C)CC2CC(C)(C)C3)c1 (stereo not shown) | -0.02 |
| COc1ccc(N(C)S(=O)(=O)c2cccc(C(=O)NCCCOc3cccc(C)c3)c2)cc1 | -0.03 |
| Oc1ccc(Cl)cc1/C=N/c1ccccc1 | -0.28 |
| CCCn1ccnc1S(=O)(=O)CC(=O)Nc1ccc(C(N)=O)cc1 | -0.12 |
| NCCCCN | -0.17 |
| Nc1ncnc2c1cnn2-c1ccccc1 | -0.03 |
| CCc1nn2c(=O)cc(CNc3cc(Cl)ccc3F)nc2s1 | -0.05 |
| CNC(=O)C1CNc2ccccc2O1 (stereo not shown) | -0.02 |
| COc1ccc2cc(C3(C)NC(=O)N(CC(=O)NCC45CC6CC(CC(C6)C4)C5)C3=O)ccc2c1 (stereo not shown) | -0.02 |
| CC(CC(O)c1ccccc1)NC(=O)c1cccc(S(=O)(=O)NCC2CCCO2)c1 (stereo not shown) | -0.02 |
| C[C@H](NC(N)=O)C(=O)OCC(=O)Nc1ccc(C(N)=O)cc1 | 0.02 |
| NC(=O)COC(=O)C1CC(=O)N(c2ccc3c(c2)OCCO3)C1 (stereo not shown) | -0.02 |
| COc1ccc(NC(=O)c2cccc(S(=O)(=O)NC(C)C34CC5CC(CC(C5)C3)C4)c2)cc1S(=O)(=O)N1CCOCC1 (stereo not shown) | 0.08 |
| CN(CC(=O)NCc1ccco1)CC(=O)Nc1nc(-c2c[nH]c3ccccc23)cs1 | -0.13 |
| O=C1NC(=S)NC(=O)C1=NNc1cccc(OC(F)F)c1 | 0.09 |
| Cc1ccc(OCc2nnc(SCc3ccccc3)n2N)c(C)c1 | -0.02 |
| NC(=O)N(Cc1ccccc1)Cc1ccccc1 | 0.05 |
| COc1ccc(C(=O)C2=C(O)C(=O)N(CCN3CCOCC3)C2c2ccc(Cl)cc2)c(O)c1 (stereo not shown) | -0.01 |
| CN(c1cccc(Cl)c1)S(=O)(=O)c1cccc(C(=O)Nc2sccc2C(N)=O)c1 | 0.18 |
| CC(OC(=O)Cc1c[nH]c2ccccc12)C(=O)Nc1ccc(C(N)=O)cc1 (stereo not shown) | 0.18 |

In another format: entries from further up.
Compound | TSA(without NAD+) / Primary screening (TSA) / delta Tm (K)
Oc1ccc(Cl)cc1/C=N/c1ccccc1 | -0.28
CCc1nn2c(=O)cc(CNc3cc(Cl)ccc3F)nc2s1 | -0.05
O=C1NC(=S)NC(=O)C1=NNc1cccc(OC(F)F)c1 | 0.09
Cc1ccc(OCc2nnc(SCc3ccccc3)n2N)c(C)c1 | -0.02
